# Experimental data published in PubChem BioAssay AID220 (DTP/NCI, 2004).
# The list does not hold the whole screen: its compounds were picked by chemical class. Other doses and runs of a compound may be missing. T/C gives the treated animals as a percentage of the vehicle group. Schedule codes are those of the source, read here as Q, the interval in days (D) or hours (H), X, the number of doses. Some T/C values are followed by the survivors on the day toxicity was checked; without a count or a note in brackets, all were alive then. Some entries hold several experiments; their values stand side by side, smallest first. Some complexes appear as separate parts, the way the source draws them; their charges need not add up. Some doses have a count of surviving animals in place of a T/C: the source holds a T/C of zero for them, seemingly a mark for toxic or unscored doses. Counts of survivors are from the toxicity check, whose day is not always given; animals may have died later.
# System: CD8F1 mice, subcutaneous mammary adenocarcinoma, T/C%
# Assay: NCI In Vivo Anticancer Drug Screen. Data for tumor model Mammary Adenocarcinoma CD8F1 (subcutaneous) in CD8F1
# Conditions: higher T/C = larger tumour
# Protocol: The antitumor activity of compounds was measured in mice bearing transplantable tumors. Survival or tumor size were measured and the results are expressed as the measurement made in the treated group (T) divided by the measurement made in the vehicle treated control group (C). The tumor model used in this assay is Mammary Adenocarcinoma CD8F1 (subcutaneous) in CD8F1
# [1] = T/C endpoint: median tumor weight (est.), dose: 12.5 mg/kg/injection, schedule: Q07DX005 (ip), vehicle: Klucel (hydroxypropylcellulose) (HPC), evaluated on day 30
# [2] = T/C endpoint: median tumor weight (est.), dose: 25.0 mg/kg/injection, schedule: Q07DX005 (ip), vehicle: Klucel (hydroxypropylcellulose) (HPC), evaluated on day 30
# [3] = T/C endpoint: median tumor weight (est.), dose: 50.0 mg/kg/injection, schedule: Q07DX005 (ip), vehicle: Klucel (hydroxypropylcellulose) (HPC)
# [4] = T/C endpoint: median tumor weight (est.), dose: 100.0 mg/kg/injection, schedule: Q07DX005 (ip), vehicle: Klucel (hydroxypropylcellulose) (HPC)
structure (smiles),measurement,setting,value
Cc1ccc(Sc2ccc([N+](=O)[O-])cc2[N+](=O)[O-])c([N+](=O)[O-])c1,T/C,"T/C endpoint: median tumor weight change, dose: 125.0 mg/kg/injection, schedule: Q01DX001 (ip), vehicle: Klucel (hydroxypropylcellulose) (HPC), evaluated on day 35",128 % of control
same,T/C,"T/C endpoint: median tumor weight change, dose: 250.0 mg/kg/injection, schedule: Q01DX001 (ip), vehicle: Klucel (hydroxypropylcellulose) (HPC), evaluated on day 35",117 % of control [9 of 10 alive on day 35]
same,T/C,"T/C endpoint: median tumor weight change, dose: 500.0 mg/kg/injection, schedule: Q01DX001 (ip), vehicle: Klucel (hydroxypropylcellulose) (HPC), evaluated on day 35",84 % of control
same,T/C,"T/C endpoint: median tumor weight change, dose: 1000.0 mg/kg/injection, schedule: Q01DX001 (ip), vehicle: Klucel (hydroxypropylcellulose) (HPC), evaluated on day 35",54 % of control
same,T/C,"T/C endpoint: median tumor weight change, dose: 2000.0 mg/kg/injection, schedule: Q01DX001 (ip), vehicle: Klucel (hydroxypropylcellulose) (HPC), evaluated on day 35",32 % of control
CC1(C)CN1P(=O)(Nc1ncccn1)N1CC1(C)C (stereo unspecified),T/C,"T/C endpoint: median tumor weight change, dose: 125.0 mg/kg/injection, schedule: Q01DX001 (ip), vehicle: saline, evaluated on day 25",130 % of control
same,T/C,"T/C endpoint: median tumor weight change, dose: 250.0 mg/kg/injection, schedule: Q01DX001 (ip), vehicle: saline, evaluated on day 25",119 % of control
same,T/C,"T/C endpoint: median tumor weight change, dose: 500.0 mg/kg/injection, schedule: Q01DX001 (ip), vehicle: saline, evaluated on day 25",122 % of control
same,T/C,"T/C endpoint: median tumor weight change, dose: 1000.0 mg/kg/injection, schedule: Q01DX001 (ip), vehicle: saline, evaluated on day 25",122 % of control
same,survivor count,"T/C endpoint: median tumor weight change, dose: 2000.0 mg/kg/injection, schedule: Q01DX001 (ip), vehicle: saline",6 of 10 on day 25
NC(=O)Nc1ccc(N(CCCl)CCCl)cc1,T/C,[1],60 [9 of 10 alive on day 30] and 91 % of control
same,T/C,[2],57 and 123 % of control
same,T/C,"T/C endpoint: median tumor weight (est.), dose: 50.0 mg/kg/injection, schedule: Q07DX005 (ip), vehicle: Klucel (hydroxypropylcellulose) (HPC), evaluated on day 30",32 % of control [7 of 10 alive]
same,survivor count,[3],4 of 10 on day 30
same,survivor count,[4],0 of 10 on day 30
[Au].[C-]#N.[C-]#N,T/C,"T/C endpoint: median tumor weight change, dose: 3.0 mg/kg/injection, schedule: Q01DX001 (ip), vehicle: saline, evaluated on day 32",117 % of control
same,T/C,"T/C endpoint: median tumor weight change, dose: 3.12 mg/kg/injection, schedule: Q01DX001 (ip), vehicle: saline, evaluated on day 29",79 % of control
same,T/C,"T/C endpoint: median tumor weight change, dose: 6.0 mg/kg/injection, schedule: Q01DX001 (ip), vehicle: saline, evaluated on day 32",94 % of control
same,T/C,"T/C endpoint: median tumor weight change, dose: 6.25 mg/kg/injection, schedule: Q01DX001 (ip), vehicle: saline, evaluated on day 29",70 % of control
same,T/C,"T/C endpoint: median tumor weight change, dose: 12.0 mg/kg/injection, schedule: Q01DX001 (ip), vehicle: saline, evaluated on day 32",121 % of control
same,T/C,"T/C endpoint: median tumor weight change, dose: 12.5 mg/kg/injection, schedule: Q01DX001 (ip), vehicle: saline, evaluated on day 28",75 % of control [9 of 10 alive on day 28]
same,T/C,"T/C endpoint: median tumor weight change, dose: 12.5 mg/kg/injection, schedule: Q01DX001 (ip), vehicle: saline, evaluated on day 29",67 % of control
same,survivor count,"T/C endpoint: median tumor weight change, dose: 25.0 mg/kg/injection, schedule: Q01DX001 (ip), vehicle: saline","0 of 10 on day 28, 1 of 10 on day 28, 1 of 10 on day 32"
same,survivor count,"T/C endpoint: median tumor weight change, dose: 50.0 mg/kg/injection, schedule: Q01DX001 (ip), vehicle: saline",0 of 10 on day 28
same,survivor count,"T/C endpoint: median tumor weight change, dose: 100.0 mg/kg/injection, schedule: Q01DX001 (ip), vehicle: saline",0 of 10 on day 28
same,survivor count,"T/C endpoint: median tumor weight change, dose: 200.0 mg/kg/injection, schedule: Q01DX001 (ip), vehicle: saline",0 of 10 on day 28
ICCN(CCI)c1cccc2ccccc12,T/C,"T/C endpoint: median tumor weight (est.), dose: 0.37 mg/kg/injection, schedule: Q07DX005 (ip), vehicle: Klucel (hydroxypropylcellulose) (HPC), evaluated on day 30",127 % of control
same,T/C,"T/C endpoint: median tumor weight (est.), dose: 0.75 mg/kg/injection, schedule: Q07DX005 (ip), vehicle: Klucel (hydroxypropylcellulose) (HPC), evaluated on day 30",85 % of control
same,T/C,"T/C endpoint: median tumor weight (est.), dose: 0.78 mg/kg/injection, schedule: Q07DX005 (ip), vehicle: Klucel (hydroxypropylcellulose) (HPC), evaluated on day 30",160 % of control
same,T/C,"T/C endpoint: median tumor weight (est.), dose: 1.5 mg/kg/injection, schedule: Q07DX005 (ip), vehicle: Klucel (hydroxypropylcellulose) (HPC), evaluated on day 30",51 % of control
same,T/C,"T/C endpoint: median tumor weight (est.), dose: 1.56 mg/kg/injection, schedule: Q07DX005 (ip), vehicle: Klucel (hydroxypropylcellulose) (HPC), evaluated on day 30",122 % of control
same,T/C,"T/C endpoint: median tumor weight (est.), dose: 3.0 mg/kg/injection, schedule: Q07DX005 (ip), vehicle: Klucel (hydroxypropylcellulose) (HPC), evaluated on day 30",66 % of control [9 of 10 alive on day 30]
same,T/C,"T/C endpoint: median tumor weight (est.), dose: 3.12 mg/kg/injection, schedule: Q07DX005 (ip), vehicle: Klucel (hydroxypropylcellulose) (HPC), evaluated on day 30",136 % of control
same,survivor count,"T/C endpoint: median tumor weight (est.), dose: 6.0 mg/kg/injection, schedule: Q07DX005 (ip), vehicle: Klucel (hydroxypropylcellulose) (HPC)",3 of 10 on day 30
same,T/C,"T/C endpoint: median tumor weight (est.), dose: 6.25 mg/kg/injection, schedule: Q07DX005 (ip), vehicle: Klucel (hydroxypropylcellulose) (HPC), evaluated on day 30",106 [9 of 10 alive on day 30] and 154 % of control
same,survivor count,"T/C endpoint: median tumor weight (est.), dose: 6.25 mg/kg/injection, schedule: Q07DX005 (ip), vehicle: Klucel (hydroxypropylcellulose) (HPC)",6 of 10 on day 30
same,T/C,"T/C endpoint: median tumor weight (est.), dose: 12.5 mg/kg/injection, schedule: Q01DX005 (ip), vehicle: Klucel (hydroxypropylcellulose) (HPC), evaluated on day 34",66 % of control
same,T/C,[1],128 % of control
same,survivor count,"T/C endpoint: median tumor weight (est.), dose: 12.5 mg/kg/injection, schedule: Q07DX005 (ip), vehicle: Klucel (hydroxypropylcellulose) (HPC)",0 of 10 on day 30 and 5 of 10 on day 30
same,survivor count,"T/C endpoint: median tumor weight (est.), dose: 15.0 mg/kg/injection, schedule: Q07DX005 (ip), vehicle: Klucel (hydroxypropylcellulose) (HPC)",0 of 10 on day 30 and 2 of 10 on day 30
same,T/C,"T/C endpoint: median tumor weight (est.), dose: 25.0 mg/kg/injection, schedule: Q01DX005 (ip), vehicle: Klucel (hydroxypropylcellulose) (HPC), evaluated on day 34",27 % of control
same,T/C,[2],105 % of control
same,survivor count,"T/C endpoint: median tumor weight (est.), dose: 25.0 mg/kg/injection, schedule: Q07DX005 (ip), vehicle: Klucel (hydroxypropylcellulose) (HPC)",0 of 10 on day 30
same,survivor count,"T/C endpoint: median tumor weight (est.), dose: 30.0 mg/kg/injection, schedule: Q07DX005 (ip), vehicle: Klucel (hydroxypropylcellulose) (HPC)",0 of 10 on day 30
same,survivor count,[3],0 of 10 on day 30 and 6 of 10
same,survivor count,"T/C endpoint: median tumor weight (est.), dose: 60.0 mg/kg/injection, schedule: Q07DX005 (ip), vehicle: Klucel (hydroxypropylcellulose) (HPC)",0 of 10 on day 30
same,survivor count,[4],0 of 10 on day 30
same,survivor count,"T/C endpoint: median tumor weight (est.), dose: 120.0 mg/kg/injection, schedule: Q07DX005 (ip), vehicle: Klucel (hydroxypropylcellulose) (HPC)",0 of 10 on day 30
same,survivor count,"T/C endpoint: median tumor weight change, dose: 15.62 mg/kg/injection, schedule: Q01DX001 (ip), vehicle: Klucel (hydroxypropylcellulose) (HPC)",3 of 10 on day 30
same,survivor count,"T/C endpoint: median tumor weight change, dose: 31.0 mg/kg/injection, schedule: Q01DX001 (ip), vehicle: Klucel (hydroxypropylcellulose) (HPC)",4 of 9 on day 28
same,survivor count,"T/C endpoint: median tumor weight change, dose: 31.25 mg/kg/injection, schedule: Q01DX001 (ip), vehicle: Klucel (hydroxypropylcellulose) (HPC)",5 of 10 on day 30
same,survivor count,"T/C endpoint: median tumor weight change, dose: 62.0 mg/kg/injection, schedule: Q01DX001 (ip), vehicle: Klucel (hydroxypropylcellulose) (HPC)",3 of 9 on day 28
same,survivor count,"T/C endpoint: median tumor weight change, dose: 62.5 mg/kg/injection, schedule: Q01DX001 (ip), vehicle: Klucel (hydroxypropylcellulose) (HPC)",1 of 10 on day 30
same,survivor count,"T/C endpoint: median tumor weight change, dose: 125.0 mg/kg/injection, schedule: Q01DX001 (ip), vehicle: Klucel (hydroxypropylcellulose) (HPC)",0 of 10 on day 30 and 2 of 9 on day 28
same,survivor count,"T/C endpoint: median tumor weight change, dose: 250.0 mg/kg/injection, schedule: Q01DX001 (ip), vehicle: Klucel (hydroxypropylcellulose) (HPC)",0 of 9 on day 28 and 2 of 10 on day 30
same,survivor count,"T/C endpoint: median tumor weight change, dose: 500.0 mg/kg/injection, schedule: Q01DX001 (ip), vehicle: Klucel (hydroxypropylcellulose) (HPC)",0 of 10 on day 30 and 0 of 9 on day 28
